Experimental data: PubChem BioAssay AID652243 (Drosophila RNAi Screening Center, 2013)

- Test: 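Fly regulators of androgen-dependent reporter output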 (primary screen)
- Cell system: Drosophila S2R+ cells
- Reagent: long dsRNA against Drosophila genes
- Duration: 72 h (48 h, then 24 h hormone)
- Conditions: synthetic androgen R1881 at 10 nM for 24 h
- Read-out: 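Per-well raw luminescence of the androgen-driven firefly reporter and of the Renilla control, two replicates each, without normalisation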
- Reading the numbers: firefly reporter light: higher = more light from androgen-responsive reporter; Renilla control light: higher = more constitutive control signal (cell number, transfection)
- Active means: 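Across duplicate plates, a knock-down whose log firefly/Renilla ratio shifted a set fold down or up from the GFP/LacZ control mean was a hit; the downward cut appears as both 1.5 and 3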
- Calls: active = hit: reporter lowered or raised; inactive = no hit
In all, the deposit lists about 24,000 reagents; below is a random part of those with a known target gene and a result. Of all reagents, 246 (1%) were called active. 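Plates not normalised; calls are printed but the firefly/Renilla ratio behind them is not deposited; fold cut for lowering reported inconsistently.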 Raw values are not corrected between plates. The numbers tell different reagents against one gene apart. A plus sign joins genes that one reagent is predicted to hit. Reagent sequences are not shown. Not given: the amount of reagent.

The first 4 records, ahead of the listing:
| gene | dsRNA no. | firefly reporter light, replicate 1 | firefly reporter light, replicate 2 | Renilla control light, replicate 1 | Renilla control light, replicate 2 | outcome |
| --- | --- | --- | --- | --- | --- | --- |
| CG6583 | 1 | 2.89e5 | 2.37e5 | 2.01e6 | 1.76e6 | inactive |
| CG6583 | 2 | 2.96e5 | 2.38e5 | 5.39e5 | 7.55e5 | inactive |
| CG4914 | 1 | 1.40e5 | 1.41e5 | 2.06e6 | 1.69e6 | inactive |
| Pak3 | 1 | 42089 | 85046 | 2.87e5 | 3.98e5 | inactive |

The listing, from the start:
| gene | dsRNA no. | firefly reporter light, replicate 1 | firefly reporter light, replicate 2 | Renilla control light, replicate 1 | Renilla control light, replicate 2 | outcome |
| --- | --- | --- | --- | --- | --- | --- |
| CG6583 | 1 | 2.89e5 | 2.37e5 | 2.01e6 | 1.76e6 | inactive |
| CG6583 | 2 | 2.96e5 | 2.38e5 | 5.39e5 | 7.55e5 | inactive |
| CG4914 | 1 | 1.40e5 | 1.41e5 | 2.06e6 | 1.69e6 | inactive |
| Pak3 | 1 | 42089 | 85046 | 2.87e5 | 3.98e5 | inactive |
| Pak3 | 2 | 3.26e5 | 3.53e5 | 3.89e5 | 4.50e5 | inactive |
| Pak3 | 3 | – | – | – | – | inactive |
| ksh | 1 | 78654 | 46349 | 1.51e5 | 1.08e5 | inactive |
| ksh | 2 | 3.29e5 | 4.18e5 | 1.78e6 | 1.54e6 | inactive |
| lncRNA:CR33218 | 1 | 4.52e5 | 8.02e5 | 1.14e6 | 1.56e6 | inactive |
| CG16704 | 1 | 1.00e5 | 1.60e5 | 8.18e5 | 1.35e6 | inactive |
| CG8281 | 1 | 1.69e5 | 1.81e5 | 1.78e6 | 1.68e6 | inactive |
| Tsp42Er | 1 | 3.90e5 | 3.11e5 | 2.52e6 | 1.67e6 | inactive |
| CG42807 | 1 | 96580 | 71514 | 1.79e6 | 1.79e6 | inactive |
| SCOT | 1 | 9.75e5 | 1.09e6 | 1.84e6 | 1.43e6 | inactive |
| SCOT | 2 | 3.54e5 | 2.98e5 | 4.67e5 | 6.34e5 | inactive |
| Odj | 1 | 69451 | 56529 | 4.02e5 | 4.23e5 | inactive |
| Cyp4ac3 | 1 | 7.11e5 | 7.30e5 | 2.46e6 | 2.62e6 | inactive |
| CG17234 | 1 | 1.36e5 | 63291 | 6.71e5 | 4.84e5 | inactive |
| CG11403 | 1 | 45583 | 45374 | 3.92e5 | 4.72e5 | inactive |
| CG2278 | 1 | 1.86e5 | 2.00e5 | 2.06e6 | 2.83e6 | inactive |
| Rad9 | 1 | 60748 | 42955 | 6.76e5 | 4.51e5 | inactive |
| CG18128 | 1 | 2.41e5 | 2.32e5 | 1.62e6 | 1.59e6 | inactive |
| Ercc1 | 1 | 9.15e5 | 7.75e5 | 1.46e6 | 1.50e6 | inactive |
| HDAC11 | 1 | 1.14e5 | 1.72e5 | 2.15e6 | 2.44e6 | inactive |
| HDAC11 | 2 | 3.36e5 | 2.66e5 | 7.40e5 | 5.02e5 | inactive |
| asRNA:CR43469 + Balat | 1 | 1.25e6 | 1.20e6 | 1.96e6 | 1.90e6 | inactive |
| mRpL9 | 1 | 1.35e5 | 1.42e5 | 2.28e6 | 1.77e6 | inactive |
| mRpL9 | 2 | 2.52e5 | 2.98e5 | 6.61e5 | 7.82e5 | inactive |
| VhaAC39-2 | 1 | 1.64e5 | 2.21e5 | 1.87e6 | 2.91e6 | inactive |
| CG7715 | 1 | 2.83e5 | 2.18e5 | 2.88e6 | 3.31e6 | inactive |
| CG15177 | 1 | 91444 | 62662 | 1.20e6 | 8.91e5 | inactive |
| CG15177 | 2 | 8.27e5 | 9.88e5 | 5.96e5 | 8.07e5 | inactive |
| yellow-g | 1 | 26529 | 24758 | 8.86e5 | 7.55e5 | inactive |
| ClpX | 1 | 88022 | 51867 | 4.22e5 | 4.65e5 | inactive |
| trpl | 1 | 2.33e5 | 1.61e5 | 1.82e6 | 1.36e6 | inactive |
| trpl | 2 | 7.10e5 | 9.64e5 | 1.94e6 | 2.65e6 | inactive |
| trpl | 3 | 1.95e5 | 2.22e5 | 4.29e5 | 4.56e5 | inactive |
| Uhg4 + snoRNA:Psi28S-2949 | 1 | 7.44e5 | 7.82e5 | 1.91e6 | 1.65e6 | inactive |
| Kr-h2 | 1 | 2.28e5 | 2.51e5 | 2.16e6 | 1.67e6 | inactive |
| CG10163 | 1 | 83849 | 1.61e5 | 1.03e6 | 1.35e6 | inactive |
| natalisin | 1 | 1.23e5 | 1.44e5 | 1.80e6 | 2.15e6 | inactive |
| natalisin | 2 | 1.10e6 | 1.31e6 | 1.03e6 | 1.20e6 | inactive |
| natalisin | 3 | 3.36e5 | 2.82e5 | 8.14e5 | 7.23e5 | inactive |
| sncRNA:430e + His2A:CG33859 + His2A:CG33817 + 37 more | 1 | 1.74e5 | 1.49e5 | 1.53e5 | 1.18e5 | inactive |
| twy | 1 | 2.89e5 | 2.47e5 | 3.41e6 | 2.94e6 | inactive |
| hng3 | 1 | 81822 | 94603 | 1.52e6 | 1.64e6 | inactive |
| hng3 | 2 | 9.79e5 | 6.69e5 | 1.94e6 | 1.77e6 | inactive |
| Idi | 1 | 75445 | 1.48e5 | 7.95e5 | 7.55e5 | inactive |
| lncRNA:CR33948 | 1 | 9.55e5 | 8.50e5 | 1.81e6 | 1.83e6 | inactive |
| Alg7 | 1 | 5.57e5 | 6.13e5 | 1.92e6 | 2.02e6 | inactive |
| Alg7 | 2 | 1.65e5 | 1.53e5 | 1.20e6 | 1.24e6 | inactive |
| CycT | 1 | 5202 | 5950 | 1.10e5 | 1.35e5 | active |
| CycT | 2 | 1.47e5 | 1.27e5 | 4.28e5 | 4.42e5 | inactive |
| CycT | 3 | 1.15e5 | 1.82e5 | 4.40e5 | 4.40e5 | inactive |
| CycT | 4 | – | – | – | – | inactive |
| CycT | 5 | – | – | – | – | inactive |
| CG33099 | 1 | 71725 | 84503 | 6.11e5 | 7.31e5 | inactive |
| CG33099 | 2 | 5.88e5 | 4.84e5 | 1.25e6 | 1.23e6 | inactive |
